Here are results for 12 compounds from the supplement of paper PMC4635364.

Experiment [1] deals with ReNCell VM. The experiment is described as follows: neuronal differentiation score (DCX+ cell fraction vs untreated, manual image score) (score (-3 to 3)); higher = more neuronal differentiation. To be noted: 2 uM, 2 weeks.
For experiment [2], the system named is ReNCell VM. The experiment can be described thus: dopaminergic neuron differentiation score (TH+ cell fraction vs untreated, manual image score) (score (0 to 3)); higher = more TH+ dopaminergic neuron differentiation. To be noted: 2 uM, 4 weeks, BDNF 10 ng/ml + GDNF 10 ng/ml.

Each structure is given as a SMILES string. Where a name gives a salt, the structure may show the parent alone. The list shows a part of the results. Repeats in this data set agree poorly, so a single value says little.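 Cells: ReNCell VM human fetal ventral-midbrain neural progenitors, differentiated mitogen-free. Blinded raters compared doublecortin-stained (early neurons) or tyrosine hydroxylase-stained (dopaminergic neurons) images with untreated wells, where 0 means no change. After repeats and both raters were averaged, compounds scoring 2 or above became hits for retesting.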

On to `O=c1[nH]cnc2c1ncn2[C@@H]1O[C@H](CO)[C@@H](O)[C@H]1O`, for which, in the experiment on ReNCell VM [1] (library: Spectrum), the neuronal differentiation score was inactive: 0. The “dopaminergic neuron differentiation score” value in the experiment with ReNCell VM [2] (library: Spectrum) is inactive: 0.

For `CC(C)C1=CC2=CC[C@@H]3[C@](C)(CCC[C@@]3(C)C(=O)O)[C@H]2CC1` [abietic acid], the neuronal differentiation score with ReNCell VM [1] (library: Natural) is inactive: 0. The “dopaminergic neuron differentiation score” value in the experiment with ReNCell VM [2] (library: Natural) was inactive: 0.

As to `CC1(C)O[C@@H]2C[C@H]3[C@@H]4CCC5=CC(=O)CC[C@]5(C)[C@@]4(F)[C@@H](O)C[C@]3(C)[C@]2(C(=O)CCl)O1` [Halcinonide], in the experiment on ReNCell VM [1] (library: Prestwick), the neuronal differentiation score was inactive: 0. Also, the “dopaminergic neuron differentiation score” value in the experiment with ReNCell VM [2] (library: Prestwick) is inactive: 0.

In the case of `O=C(O)COC(=O)Cc1ccccc1Nc1c(Cl)cccc1Cl`, the neuronal differentiation score with ReNCell VM [1] (library: Spectrum) was inactive: 0. Besides, the “dopaminergic neuron differentiation score” value in the experiment on ReNCell VM [2] (library: Spectrum) is inactive: 1.

As to `CC(=O)NS(=O)(=O)c1ccc(N)cc1`, in the experiment with ReNCell VM [1] (library: Spectrum), the neuronal differentiation score was inactive: 1. Also, the “dopaminergic neuron differentiation score” value in the experiment with ReNCell VM [2] (library: Spectrum) is inactive: 0.

On to `C/N=C(/NC#N)NCCSCc1csc(NC(=N)N)n1` [Tiotidine], for which the neuronal differentiation score in the experiment on ReNCell VM [1] (library: Tocriscreen) is inactive: 0. Moreover, in the experiment with ReNCell VM [2] (library: Tocriscreen), the “dopaminergic neuron differentiation score” value was inactive: 0.

On to `COc1cc(SC)ccc1C(=O)N1CCC(Cc2ccccc2)CC1`, for which the neuronal differentiation score in the experiment with ReNCell VM [1] (library: Tocriscreen) was inactive: 0. The “dopaminergic neuron differentiation score” value in the experiment with ReNCell VM [2] (library: Tocriscreen) is inactive: 0.

In the case of `CC(C)[C@@H]1CC[C@@H](C)C[C@H]1OC(=O)c1ccccc1`, the neuronal differentiation score in the experiment with ReNCell VM [1] (library: Spectrum) is inactive: 0. Also, the “dopaminergic neuron differentiation score” value in the experiment on ReNCell VM [2] (library: Spectrum) was inactive: 0.

As for `O=C(O)c1ccc(-c2c[nH]c3ncc(-c4ccccc4)cc23)cc1C1CCCC1`, the neuronal differentiation score with ReNCell VM [1] (library: Tocriscreen) is inactive: 0. Further, in the experiment with ReNCell VM [2] (library: Tocriscreen), the “dopaminergic neuron differentiation score” value was inactive: 0.

As for `CN1CCC(OC(c2ccccc2)c2ccccc2)CC1`, the neuronal differentiation score in the experiment with ReNCell VM [1] (library: Spectrum) was inactive: 0. The “dopaminergic neuron differentiation score” value with ReNCell VM [2] (library: Spectrum) is inactive: 0.

As for `CC(C)(C)NCC(O)COc1cccc2c1CCC(=O)N2` (centres undefined) [Carteolol hydrochloride], in the experiment on ReNCell VM [1] (library: Prestwick), the neuronal differentiation score is inactive: 0. Besides, in the experiment on ReNCell VM [2] (library: Prestwick), the “dopaminergic neuron differentiation score” value is inactive: 0.

With `CC(=O)OCC(=O)[C@@]1(O)CC[C@H]2[C@@H]3CCC4=CC(=O)C=C[C@]4(C)[C@@]3(F)[C@@H](O)C[C@@]21C`, the neuronal differentiation score in the experiment with ReNCell VM [1] (library: Spectrum) is inactive: 0. Also, the “dopaminergic neuron differentiation score” value with ReNCell VM [2] (library: Spectrum) was inactive: 0.
